Assay results from paper PMC8390757.
Results are given in words; binding and its absence hold for the method and conditions named. Binding seen in cells or lysates may run through a third protein. Here binding means that the protein was enriched with, or labelled near, the bait; the list need not be complete.

Protein sequences, listed by entry. Tags and fused reporters are not part of them.
UniProt P60335: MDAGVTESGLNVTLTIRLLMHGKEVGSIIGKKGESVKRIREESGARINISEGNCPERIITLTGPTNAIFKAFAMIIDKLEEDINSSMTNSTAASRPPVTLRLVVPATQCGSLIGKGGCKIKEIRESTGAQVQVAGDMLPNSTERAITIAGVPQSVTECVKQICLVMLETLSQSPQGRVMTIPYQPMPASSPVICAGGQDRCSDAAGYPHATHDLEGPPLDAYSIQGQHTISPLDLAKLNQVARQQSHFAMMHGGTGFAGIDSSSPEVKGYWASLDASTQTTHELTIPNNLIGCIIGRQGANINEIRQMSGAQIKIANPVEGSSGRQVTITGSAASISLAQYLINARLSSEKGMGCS
UniProt Q61990: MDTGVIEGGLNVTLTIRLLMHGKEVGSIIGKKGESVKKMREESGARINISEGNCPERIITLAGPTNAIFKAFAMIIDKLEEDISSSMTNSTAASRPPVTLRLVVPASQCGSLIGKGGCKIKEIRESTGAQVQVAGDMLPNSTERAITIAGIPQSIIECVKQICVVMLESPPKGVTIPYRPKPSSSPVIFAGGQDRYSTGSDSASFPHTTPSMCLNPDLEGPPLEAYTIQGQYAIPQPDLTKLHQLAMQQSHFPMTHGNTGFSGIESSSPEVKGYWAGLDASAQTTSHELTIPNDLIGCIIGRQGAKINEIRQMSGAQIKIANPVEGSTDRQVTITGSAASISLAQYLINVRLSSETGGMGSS

Target: FLAG-tagged PTENα (bait of the FLAG pull-down with mass spectrometry) (UniProt P60484)
Assay: affinity purification with mass spectrometry; FLAG-tagged PTENα expressed in cells treated with 100 μM H2O2; whole-cell extracts on FLAG-beads, washed four times with PBS with 0.1% NP40, eluted with 3× FLAG-peptide, SDS-PAGE, in-gel trypsin digestion, LTQ Orbitrap Elite

| binding | Substance |
| --- | --- |
| binds | PCBP1 (from UniProt P60335 1-356) |
| binds | PCBP2 (from UniProt Q61990 1-362) |
